Experimental data published in PMC11094040.
These are yes or no findings as the source states them, for the method shown. In cells and extracts the contact can be indirect. Some binding calls cover weakened binding; strength is not graded here.

Biological target: T1, BmAgo3 (silkworm (endogenous in BmN4)) (UniProt A9ZSZ2)
T1 sequence: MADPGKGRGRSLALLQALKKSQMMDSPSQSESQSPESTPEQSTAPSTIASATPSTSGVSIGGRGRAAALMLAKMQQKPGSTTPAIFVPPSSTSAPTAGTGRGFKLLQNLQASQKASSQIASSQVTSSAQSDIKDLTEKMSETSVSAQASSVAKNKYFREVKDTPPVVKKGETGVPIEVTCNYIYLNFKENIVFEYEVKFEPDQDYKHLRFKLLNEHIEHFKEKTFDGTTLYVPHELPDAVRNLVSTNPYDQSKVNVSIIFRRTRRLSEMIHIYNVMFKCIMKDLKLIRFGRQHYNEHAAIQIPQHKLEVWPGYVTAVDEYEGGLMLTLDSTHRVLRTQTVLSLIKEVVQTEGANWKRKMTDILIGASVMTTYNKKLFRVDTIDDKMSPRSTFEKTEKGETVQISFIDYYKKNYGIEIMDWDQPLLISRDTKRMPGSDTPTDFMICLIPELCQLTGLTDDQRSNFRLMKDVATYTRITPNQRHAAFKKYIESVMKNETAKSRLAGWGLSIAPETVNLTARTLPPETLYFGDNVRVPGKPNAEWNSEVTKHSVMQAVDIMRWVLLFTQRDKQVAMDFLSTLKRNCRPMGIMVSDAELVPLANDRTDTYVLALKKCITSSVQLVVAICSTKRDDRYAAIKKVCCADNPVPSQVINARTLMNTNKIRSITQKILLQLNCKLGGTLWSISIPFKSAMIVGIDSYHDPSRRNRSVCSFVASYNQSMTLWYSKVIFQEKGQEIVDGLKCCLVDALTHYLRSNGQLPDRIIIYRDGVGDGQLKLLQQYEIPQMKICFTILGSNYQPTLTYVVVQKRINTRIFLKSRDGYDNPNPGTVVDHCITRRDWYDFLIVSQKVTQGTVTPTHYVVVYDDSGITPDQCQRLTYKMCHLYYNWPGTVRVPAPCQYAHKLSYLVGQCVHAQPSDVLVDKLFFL
Experiment: co-IP; tandem IP: first anti-FLAG IP of FLAG-Spn-E-EQ from BmN4 lysate, 3x FLAG peptide eluate diluted with buffer D, second IP with anti-BmAgo3 antibody (or normal rabbit IgG); beads with or without 200 μg/ml RNase A at 30 °C for 15 min; Siwi detected by western blot

B1: Siwi (protein, UniProt A8D8P8 1-899)
chain: MSEPRGRGRARGRAGRGGDGGGPAPRRPGEQAGPSQQSMPPGPRPQPPSGWGPQSSVPPVRAGVPTPTAQAGRASHRVTPTTHEHPGDIDVQQRMQKLELGPHSSGGGDASSVVGRGSRRGGGRVLPETISILRTRPEAVTSKKGTSGTPLDLLANYFTVETTPKWGLYQYHVDISPEEDSTGVRKALMRVHSKTLGGYLFDGTVLYTVNRLHPDPMELYSDRKTDNERMRILIKLTCEVSPGDYHYIQIFNIIIRKCFNLLKLQLMGRDYFDPEAKIDIPEFKLQIWPGYKTTINQYEDRLLLVTEIAHKVLRMDTVLQMLSEYAATKGNNYKKIFLEDVVGKIVMTDYNKRTYRVDDVAWNVSPKSTFKMRDENITYIEYYYKKYNLRIQDPGQPLLISRSKPREIRAGLPELIYLVPELCRQTGLSDEMRANFKLMRSLDVHTKIGPDKRIEKLNNFNRRFTSTPEVVEELATWSLKLSKELVKIKGRQLPPENIIQANNVKYPAGDTTEGWTRDMRSKHLLAIAQLNSWVVITPERQRRDTESFIDLIIKTGGGVGFRMRSPDLVVIRHDGPIEYANMCEEVIARKNPALILCVLARNYADRYEAIKKKCTVDRAVPTQVVCARNMSSKSAMSIATKVAIQINCKLGGSPWTVDIPLPSLMVVGYDVCHDTRSKEKSFGAFVATLDKQMTQYYSIVNAHTSGEELSSHMGFNIASAVKKFREKNGTYPARIFIYRDGVGDGQIPYVHSHEVAEIKKKLAEIYAGVEIKLAFIIVSKRINTRIFVQRGRSGENPRPGTVIDDVVTLPERYDFYLVSQNVREGTIAPTSYNVIEDTTGLNPDRIQRLTYKLTHLYFNCSSQVRVPSVCQYAHKLAFLAANSLHNQPHYSLNETLYFL
- binding: binds
